PubChem BioAssay AID652259, Drosophila RNAi Screening Center | 2013
Aim: 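Knock-downs that push a Wingless-driven reporter up or down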 (primary screen). System: Drosophila clone 8 imaginal disc epithelial cells. Reagent: long dsRNA against Drosophila genes. Treatment: pathway stimulated by co-transfected Wingless expression plasmid. Measured: 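Firefly luciferase from a tcf-site Wingless reporter, measured alongside co-transfected Renilla luciferase that tracks transfection; pathway stimulated by a Wingless plasmid; the firefly-to-Renilla ratio is not deposited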. Direction: firefly reporter light: higher = more Wg reporter light, before normalisation; Renilla control light: higher = more transfected or surviving cells. Rule for the call: 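Strong candidates differ from their plate mean by at least two out of four per-plate statistical tests; weak candidates meet just one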. Meaning of the calls: active = candidate regulator (raises or lowers reporter); inactive = not a candidate.
In all, the deposit lists about 22,000 reagents; this is an unselected part of those that have a named target and a result. In the full data, 233 (1.1%) were called active. 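Light values are raw, unnormalised plate reads; the ratio scores behind the reporter calls were not deposited.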 Unmarked entries are inactive. The numbers tell different reagents against one gene apart. A plus sign joins genes that one reagent is predicted to hit. The record does not give: the amount of reagent, the time to read-out, the dose of the treatment.

For CG3117 the deposit lists firefly reporter light, replicate 1 = 1894; firefly reporter light, replicate 2 = 8161; Renilla control light, replicate 1 = 935; Renilla control light, replicate 2 = 2640.
With knock-down of run #1 the results were firefly reporter light, replicate 1 = 5699; firefly reporter light, replicate 2 = 12464; Renilla control light, replicate 1 = 1703; Renilla control light, replicate 2 = 4565.
After knock-down of run #2, the record shows firefly reporter light, replicate 1 = 7.51e5; firefly reporter light, replicate 2 = 7.83e5; Renilla control light, replicate 1 = 3.91e5; Renilla control light, replicate 2 = 2.95e5.
With knock-down of COX5A, the record shows firefly reporter light, replicate 1 = 13123; Renilla control light, replicate 1 = 2426.
Depletion of ebd2 resulted in: firefly reporter light, replicate 1 = 12720; Renilla control light, replicate 1 = 4021.
CG5255 scored firefly reporter light, replicate 1 = 14653; Renilla control light, replicate 1 = 4464.
Depletion of Dys + snoRNA:Me18S-A1374 resulted in: firefly reporter light, replicate 1 = 7426; Renilla control light, replicate 1 = 3213.
Knock-down of CG6621 gave: firefly reporter light, replicate 1 = 4636; Renilla control light, replicate 1 = 2098.

Individual results from the entries so far:
Under “Renilla control light, replicate 1”, run #1 is entered as 1703
run #2, firefly reporter light, replicate 2 = 7.83e5

More entries:
Silencing of CG14683 gave: firefly reporter light, replicate 1 = 4077; Renilla control light, replicate 1 = 1568.
After knock-down of RpL18A, the record shows firefly reporter light, replicate 1 = 6044; Renilla control light, replicate 1 = 1689.
With knock-down of CG11893 the results were firefly reporter light, replicate 1 = 29078; Renilla control light, replicate 1 = 20324.
Depletion of CG14569 resulted in: firefly reporter light, replicate 1 = 25797; Renilla control light, replicate 1 = 8757.
For Obp51a, the values are firefly reporter light, replicate 1 = 5.81e5; firefly reporter light, replicate 2 = 6.16e5; Renilla control light, replicate 1 = 1.90e5; Renilla control light, replicate 2 = 1.57e5.
Silencing of Cpr78Cb resulted in: firefly reporter light, replicate 1 = 12978; Renilla control light, replicate 1 = 4096.
Dpit47 scored firefly reporter light, replicate 1 = 1847; firefly reporter light, replicate 2 = 6263; Renilla control light, replicate 1 = 567; Renilla control light, replicate 2 = 1673.
Knock-down of Itpr came out at: firefly reporter light, replicate 1 = 12957; Renilla control light, replicate 1 = 3040.
With knock-down of path the results were firefly reporter light, replicate 1 = 7552; Renilla control light, replicate 1 = 3184.
Ids gave firefly reporter light, replicate 1 = 7868; Renilla control light, replicate 1 = 4055.
Against CG9760, the entry reads firefly reporter light, replicate 1 = 7369; Renilla control light, replicate 1 = 2347.
hwt #1 gave firefly reporter light, replicate 1 = 2022; Renilla control light, replicate 1 = 832.
Knock-down of hwt #2 gave: firefly reporter light, replicate 1 = 17931; Renilla control light, replicate 1 = 7760.
Tsp42Ed scored firefly reporter light, replicate 1 = 2445; firefly reporter light, replicate 2 = 5993; Renilla control light, replicate 1 = 875; Renilla control light, replicate 2 = 3100.
With knock-down of Actn3, the record shows firefly reporter light, replicate 1 = 15933; Renilla control light, replicate 1 = 1968.
For CG14132, the entry reads firefly reporter light, replicate 1 = 6003; Renilla control light, replicate 1 = 2717.
With knock-down of CG7730, the screen gave firefly reporter light, replicate 1 = 7895; Renilla control light, replicate 1 = 2695.
